Results are given in words; binding and its absence hold for the method and conditions named. In cells and extracts the contact can be indirect.

The chains behind the UniProt entries cited, without tags or fusion partners. Where a name states a change or a piece, a line headed by the entry shows the natural chain unless it says otherwise.
UniProt P61960: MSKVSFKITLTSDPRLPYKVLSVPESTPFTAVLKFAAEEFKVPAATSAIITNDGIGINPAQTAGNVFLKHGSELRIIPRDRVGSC
UniProt P19022: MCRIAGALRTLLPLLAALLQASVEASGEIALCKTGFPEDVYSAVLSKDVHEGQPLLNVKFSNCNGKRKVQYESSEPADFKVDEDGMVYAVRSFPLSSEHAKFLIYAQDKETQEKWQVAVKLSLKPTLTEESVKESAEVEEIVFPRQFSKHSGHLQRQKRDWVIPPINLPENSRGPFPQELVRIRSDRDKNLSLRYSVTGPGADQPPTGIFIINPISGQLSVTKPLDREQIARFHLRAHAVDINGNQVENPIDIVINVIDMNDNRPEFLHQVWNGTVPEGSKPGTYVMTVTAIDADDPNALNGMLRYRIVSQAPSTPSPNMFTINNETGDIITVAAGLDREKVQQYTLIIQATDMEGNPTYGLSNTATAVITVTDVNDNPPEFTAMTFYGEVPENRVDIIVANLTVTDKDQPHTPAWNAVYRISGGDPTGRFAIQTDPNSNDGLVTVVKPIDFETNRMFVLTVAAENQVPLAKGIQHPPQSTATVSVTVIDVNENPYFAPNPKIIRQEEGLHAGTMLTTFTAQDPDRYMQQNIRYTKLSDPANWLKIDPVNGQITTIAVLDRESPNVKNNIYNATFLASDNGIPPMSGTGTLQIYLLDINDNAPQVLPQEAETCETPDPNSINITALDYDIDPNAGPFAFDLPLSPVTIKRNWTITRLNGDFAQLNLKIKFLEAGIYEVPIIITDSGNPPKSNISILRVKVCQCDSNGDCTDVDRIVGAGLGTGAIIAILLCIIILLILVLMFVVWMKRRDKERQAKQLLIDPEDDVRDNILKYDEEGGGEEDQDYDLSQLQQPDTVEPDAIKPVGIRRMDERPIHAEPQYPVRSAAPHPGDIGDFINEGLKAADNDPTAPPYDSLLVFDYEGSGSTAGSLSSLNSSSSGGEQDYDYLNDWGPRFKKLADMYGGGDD
UniProt P12830: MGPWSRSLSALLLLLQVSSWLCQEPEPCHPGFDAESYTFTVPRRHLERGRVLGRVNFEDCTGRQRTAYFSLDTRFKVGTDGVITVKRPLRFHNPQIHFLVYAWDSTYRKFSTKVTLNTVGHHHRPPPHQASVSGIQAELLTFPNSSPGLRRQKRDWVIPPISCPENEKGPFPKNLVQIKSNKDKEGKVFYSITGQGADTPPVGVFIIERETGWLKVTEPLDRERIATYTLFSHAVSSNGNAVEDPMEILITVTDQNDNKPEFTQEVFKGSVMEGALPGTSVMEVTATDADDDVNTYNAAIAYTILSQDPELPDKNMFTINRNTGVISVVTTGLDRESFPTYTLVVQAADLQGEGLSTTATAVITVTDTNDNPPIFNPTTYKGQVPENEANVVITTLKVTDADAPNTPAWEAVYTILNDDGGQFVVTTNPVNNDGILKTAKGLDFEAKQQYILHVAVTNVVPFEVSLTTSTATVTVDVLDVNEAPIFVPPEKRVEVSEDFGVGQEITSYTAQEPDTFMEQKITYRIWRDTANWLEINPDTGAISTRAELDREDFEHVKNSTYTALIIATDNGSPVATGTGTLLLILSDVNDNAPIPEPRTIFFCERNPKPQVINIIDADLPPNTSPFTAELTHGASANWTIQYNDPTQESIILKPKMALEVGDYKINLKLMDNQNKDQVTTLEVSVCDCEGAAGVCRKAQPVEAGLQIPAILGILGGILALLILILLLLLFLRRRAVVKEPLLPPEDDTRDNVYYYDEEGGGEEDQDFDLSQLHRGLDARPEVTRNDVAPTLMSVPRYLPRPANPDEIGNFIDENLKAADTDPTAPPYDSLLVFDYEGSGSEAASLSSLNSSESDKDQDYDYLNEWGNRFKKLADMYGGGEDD

For two substances, binding results are on record in paper PMC6751655.

In this test the target is Ubiquitin-fold modifier 1 (human (endogenous in AGS)) (UniProt P61960). Nature of the test: co-IP; immunoprecipitation with UFM1 antibody from lysates of AGS cells (Figure S4A) or stable AGS cells (Fig. 5a, down panel), overnight at 4 °C; Protein A-Sepharose beads; Western blot. For orientation: In western blotting, separated proteins are transferred to a membrane and probed.

Consider N-cadherin (from UniProt P19022), for which the binding entry was “no binding”.
With E-cadherin (from UniProt P12830) the entry was “no binding”.
